Source: patent US7666901B2, “Analogs of 17-hydroxywortmannin as PI3K inhibitors” (Wyeth, priority 2004, dated 2010)
At least one compound was matched to its structure with a doubt left.

Tests used:
[1] = tested on: phosphor-AKT (S473) in Rat1 cells; assay: Rat1-IGF1 assay (IGF-1 induced phospho-AKT immunoblot); format: cell-based, rat; settings: Table 1
Protocol: Rat1 cells are plated in 6-well culture plates and serum-starved for 24 hours. Serum-starved cells are treated either with control vehicle or with various concentrations of 17-HWT for 2 hours, stimulated by IGF-1 (100 ng/mL) for 30 minutes. Total cellular lysates are prepared using NuPAGE-LDS sample buffer (Invitrogen), sonicated and then clarified by centrifugation. Equal amounts of proteins are subject to immunoblotting analysis using NuPAGE electrophoresis system and probed with phosphor-AKT (S473), total AKT antibodies (Signaling Technology).

[2] = tested on: colon carcinoma, NSCLC, DU145 and MDA231 cell lines; assay: Tumor cell growth assay, combination with MEK inhibitors, tumor line panel; format: cell-based, human; settings: HCT116, HT29, SW620, SW480, LS-174T, Caco2, Lovo, A549, H157, DU145, MDA231
Protocol: (§1) Human tumor cell are all obtained from ATCC, and are cultured using standard cell culture methods. Cells are plated in 96-well culture plates at 1000 to 3000 cells per well. One day following plating, cells are treated with various doses of PI3K inhibitor Compound 4 or Compound 5 alone or with a low constant dose of MEK inhibitor 2-(2-chloro-4-iodoanilino)-N-(cycloprorylmethoxy-3,4-difluobenzamide) (1 μg/ml) or UO126 (5 μg/ml). UO126 is also known as 1,4-diamino-2,3-dicyano-1,4-bis[2-aminophenylthio]butadiene. In some experiments, cells are treated alone with various doses of the MEK inhibitor (2-(2-chloro-4-iodoanilino)-N-(cycloprorylmethoxy-3,4-difluobenzamide)), or HER2/neu inhibitor HKI-272, or mTOR inhibitor CCI-779, or with a low constant dose of Compound 4 (0.1 μg/ml). […] Three days after drug treatment, viable cell densities are determined by metabolic conversion (by viable cells) of the dye MTS, an established cell proliferation assay. […] The MTS assay results are read in a 96-well plate reader by measuring absorbance at 490 nm. The effect of each treatment is calculated as percent of control growth relative to the vehicle DMSO-treated cells grown in the same culture plate. […]

[3] = tested on: HCT116 colon tumor cells; assay: Tumor cell growth assay, combination with MEK inhibitors, HCT116; format: cell-based, human; settings: MEK inhibitor at low constant dose
Protocol: as §1

[4] = tested on: T1, PI3K; assay: Fluorescence polarization assay for PI3K; format: biochemical; settings: for PI3K FP IC50: Table 1; for IC50: Table 2
T1 construct: PI3K FP IC50
Protocol: This assay is used to determine the IC50 of compounds of the present invention as it identifies inhibitors of PI3 kinase by measuring inhibition.
The assay is run by placing 5 μL of diluted enzyme per well, then 5 μL of diluted compound (or 9.5 μL enzyme then 0.5 μL compound in DMSO) is added and mixed. Then, 10 μL substrate is added to start the reaction. The samples are incubated 30-60 minutes, then the reaction is stopped by adding 20 μL stop/detector mix.
PI3K is diluted with reaction buffer (e.g., 5 μL or 7.5 μL PI3K into 620 μL reaction buffer), and 5 μL of diluted enzyme is used per well. 5 μL reaction buffer or drug diluted in buffer (e.g., 4 μL/100 so final DMSO is 1% in reaction) is added to each. The samples are mixed by pipetting up and down. Alternatively, the enzyme can be diluted to 1215 μL. In this case 9.8 μL is added per well and 0.2 μL compound is added in DMSO.
To prepare 1 mL of substrate solution, 955 μL reaction buffer, 40 μL PIP2, and 2.5 μL ATP are mixed. 10 μL of substrate is added to each well to start the reaction.
Stop/detector mix is prepared by mixing 4 μL Red detector and 1.6 μL or 2.0 μL GST-GRP with 1 mL Stop buffer, which results in 10 nM probe and 70 nM GST-GRP). 20 μL of the stop/detector mix is added to each well to stop the reaction. The plates are read after 30-90 minutes keeping the red probe solutions dark.
For the zero time point, stop/detector mix is added to the enzyme just before adding substrate. For an extra control, stop/detector mix is added to buffer (no enzyme) and substrate or to just buffer (no substrate).
The recommended reaction has 0.06 μL per 20 μL (0.015 μg/20 μL) or 0.01125 μg/15 μL or 0.75 μg/mL.
Plates are read on machines with filters for Tamra. The units are mP with no enzyme controls reading app 190-220 mP units. Fully active enzyme reduces fluorescence polarization down to 70-100 mP after 30 minutes. An active cpd raises the mP values halfway to control or to 120-150 mP units.

Compound	Rat1-IGF1 IC50 [1]	growth inhibition in combination with MEK inhibitors UO126 and 2-(2-chloro-4-iodoanilino)-N-(cycloprorylmethoxy-3,4-difluobenzamide) [2]	growth inhibition in combination with MEK inhibitors [3]	PI3K FP IC50 [4]	IC50 [4]
COC[C@H]1OC(=O)/C(=C/N(CCO)C(C)(C)C)C2=C(O)C(=O)C3=C([C@H](OC(C)=O)C[C@@]4(C)C3CC[C@@H]4O)[C@]21C (stereo partly drawn) [Compound 4, (1E,4S,4aR,5R,6aS,7S)-1-{[tert-butyl(2-hydroxyethyl)amino]methylene}-7,11-dihydroxy-4-(methoxymethyl)-4a,6a-dimethyl-2,10-dioxo-1,2,4,4a,5,6,6a,7,8,9,9a,10-dodecahydroindeno[4,5-h]isochromen-5-yl acetate]	0.1 µg/mL				
COC[C@H]1OC(=O)/C(=C/N(C)CCCN(C)C)C2=C(O)C(=O)C3=C([C@H](OC(C)=O)C[C@@]4(C)C3CC[C@@H]4O)[C@]21C (stereo partly drawn) [Compound 5, (1E,4S,4aR,5R,6aS,7S)-1-{[[3-(dimethylamino)propyl](methyl)amino]methylene}-7,11-dihydroxy-4-(methoxymethyl)-4a,6a-dimethyl-2,10-dioxo-1,2,4,4a,5,6,6a,7,8,9,9a,10-dodecahydroindeno[4,5-h]isochromen-5-yl acetate]		broad synergistic growth inhibition	synergistically inhibited growth	0.007 µg/mL	7 nM
CCCCN(C)/C=C1/C(=O)O[C@H](COC)[C@@]2(C)C1=C(O)C(=O)C1=C2[C@H](OC(C)=O)C[C@@]2(C)C1CC[C@@H]2O (stereo partly drawn) [Compound 8, (1E,4S,4aR,5R,6aS,7S)-1-{[butyl(methyl)amino]methylene}-7,11-dihydroxy-4-(methoxymethyl)-4a,6a-dimethyl-2,10-dioxo-1,2,4,4a,5,6,6a,7,8,9,9a,10-dodecahydroindeno[4,5-h]isochromen-5-yl acetate]				0.244 µg/mL	775 nM
